Test results as given in the supplement of paper PMC12067093, “Discovery and optimisation of a covalent ligand for TRIM25 and its application to targeted protein ubiquitination” (Chemical Science, 2025).
This is one part of the list.

Compound: CC1Cc2ccccc2N1C(=O)C1CCCN(C1)C(=O)CCl (mixture of isomers) [TRIM25 ligand 11 (diastereomer mixture)]
Experiment: probe-labelled cysteine peptide fold change vs DMSO (competition) (log2 fold change); higher = less target engagement (more negative = stronger competition)
Settings: THP-1, incubation time: 4 h
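Also: competitive chemoproteomic profiling in live THP-1 cells with an iodoacetamide desthiobiotin (IA-DTB) probe, comparing probe-labelled peptide intensities in compound-treated cells against DMSO-treated controls.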

Row | Target | probe-labelled cysteine peptide fold change (10 µM) | probe-labelled cysteine peptide fold change (50 µM)
1 | PECAM1_P16284_256_CTIQVTHLAQEFPEIIIQK (UniProt P16284) | 0.063 | 0.1
2 | PHKA1_P46020_844_KVEALDEACTDLLSHQK (UniProt P46020) | -0.115 | 0.0948
3 | PFKL_P17858_708_VFANAPDSACVIGLKK (UniProt P17858) | -0.225 | -0.0889
4 | PIGT_Q969N2_195_LLPCSSK (UniProt Q969N2) | 0.0551 | 0.0931
5 | PHYH_O14832_280+287_AISCHFASADCHYIDVK (UniProt O14832) | -0.0015 | -0.0671
6 | PEBP1_P30086_133_YVWLVYEQDRPLKCDEPILSNR (UniProt P30086) | -0.475 | -0.504
7 | PFAS_O15067_270_FCDNSSAIQGK (UniProt O15067) | -0.0455 | -0.277
8 | PHF3_Q92576_627_QCHKPQQQAPAMK (UniProt Q92576) | -0.157 | -0.344
9 | PIAS1_O75925_192_CDFTVQVQLR (UniProt O75925) | 0.115 | 0.268
10 | PIGT_Q969N2_182_EVVCTENLTPWKK (UniProt Q969N2) | -0.0672 | 0.174
11 | PGK1_P00558_379+380_GCITIIGGGDTATCCAK (UniProt P00558) | 0.102 | 0.198
12 | PGM2L1_Q6PCE3_303_CPNPEEGESVLELSLR (UniProt Q6PCE3) | 0.0542 | -0.119
13 | PI4K2A_Q9BTU6_320_YDCPMDSSSSR (UniProt Q9BTU6) | 0.0136 | -0.0674
14 | PIAS1_O75925_335_VSLLCPLGK (UniProt O75925) | 0.0547 | 0.0799
15 | PHKB_Q93100_1066_GTCSYLTK (UniProt Q93100) | -0.0318 | 0.0233
16 | PHF10_Q8WUB8_134_ELNVITETQCTLGLTALR (UniProt Q8WUB8) | -0.0941 | 0.0489

Row | Target | probe-labelled cysteine peptide fold change (10 µM) | probe-labelled cysteine peptide fold change (50 µM)
17 | PFKL_P17858_114_RAAAYNLVQHGITNLCVIGGDGSLTGANIFR (UniProt P17858) | 0.171 | 0.455
18 | PGD_P52209_171_VGTGEPCCDWVGDEGAGHFVK (UniProt P52209) | 0.0657 | -0.00791
19 | PGD_P52209_402_SAVENCQDSWRR (UniProt P52209) | -0.258 | -0.19
20 | PHF6_Q8IWS0_82_LMCSLCHCPGATIGCDVK (UniProt Q8IWS0) | 0.18 | 0.155
21 | PGP_A6NDG6_193_YLQQPGCLLVGTNMDNR (UniProt A6NDG6) | -0.109 | 0.173
22 | PGP_A6NDG6_217_FIAGTGCLVR (UniProt A6NDG6) | 0.0536 | -0.00184
23 | PFAS_O15067_1027_CVAEEER (UniProt O15067) | -0.0521 | -0.123
24 | PELP1_Q8IZL8_536_TILMCGPLIK (UniProt Q8IZL8) | 0.105 | 0.16
25 | PHKB_Q93100_280_QTLCSLLPR (UniProt Q93100) | 0.101 | 0.161
26 | PGLS_O95336_78_WTLGFCDER (UniProt O95336) | -0.0642 | 0.0564
27 | PIBF1_Q8WXW3_199_EICELQVK (UniProt Q8WXW3) | -0.112 | -0.118
28 | PHRF1_Q9P1Y6_962_TVTCVTVVEPEAPPSPDVLQAATHR (UniProt Q9P1Y6) | -0.256 | -0.149
29 | PGAM5_Q96HS1_12_QALQLAACGLAGGSAAVLFSAVAVGKPR (UniProt Q96HS1) | -0.442 | 0.0193
30 | PGGT1B_P53609_131_APGTAHPYDSGHIAMTYTGLSCLVILGDDLSR (UniProt P53609) | 0.0949 | -0.0606
31 | PHKA1_P46020_24_LVQQTILCHQNPVTGLLPASYDQK (UniProt P46020) | 0.0392 | -0.000933
32 | PGD_P52209_402_SAVENCQDSWR (UniProt P52209) | 0.0858 | 0.122
